Data as given in PubChem BioAssay AID1259254 (NCATS, 2017)
Aim: 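Genome-wide screen for genes that prevent DNA re-replication in cancer cells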 (primary screen). Cell system: human HCT116 colorectal cancer cells. Reagents: single siRNA against human genes. Time to read-out: 3 days. Measurement: 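Imaged Hoechst DNA stain sorts each cell into a cycle phase by DNA amount; per plate, G2 fraction set to 0% for non-targeting and 100% for GMNN siRNA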. Reading the numbers: G2 robust z-score and G2 cells, % of GMNN control: higher = more G2 cells, more excess DNA replication. Hit rule: 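An siRNA counts as active if its G2 robust z-score lies at least 5 MADs above the screen median; here such calls match roughly 38% of GMNN control or more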.
In all, the deposit lists about 59,000 reagents; below is a part drawn at random. In the full data, about 1,550 (2.6%) got an active call. 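G2 share is only a proxy for re-replication; each gene was hit by three separate siRNAs, and active genes were retested.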 The numbers tell different reagents against one gene apart. Not all columns of the deposit are shown. Not given: the amount of reagent.

| Gene | reagent no. | G2 robust z-score | G2 cells, % of GMNN control | activity call |
| --- | --- | --- | --- | --- |
| DEFB114 | 1 | 0.0752 | 3.5 | inactive |
| DEFB114 | 2 | 1.15 | 11 | inactive |
| DEFB114 | 3 | -0.506 | -0.593 | inactive |
| UBE2T | 1 | -0.809 | -2.72 | inactive |
| UBE2T | 2 | 0.136 | 3.93 | inactive |
| UBE2T | 3 | 1.42 | 13 | inactive |
| GSTM4 | 1 | -1.21 | -5.52 | inactive |
| GSTM4 | 2 | 0.642 | 7.48 | inactive |
| GSTM4 | 3 | 0.456 | 6.17 | inactive |
| PTGER3 | 1 | 0.23 | 4.59 | inactive |
| PTGER3 | 2 | -0.748 | -2.29 | inactive |
| PTGER3 | 3 | -1.12 | -4.92 | inactive |
| GCNT3 | 1 | 1.34 | 12.4 | inactive |
| GCNT3 | 2 | 1.73 | 15.1 | inactive |
| GCNT3 | 3 | -0.315 | 0.75 | inactive |
| IER3 | 1 | -1 | -4.09 | inactive |
| IER3 | 2 | 1.04 | 10.3 | inactive |
| IER3 | 3 | -0.423 | -0.00537 | inactive |
| ATXN7L2 | 1 | 0.507 | 6.53 | inactive |
| ATXN7L2 | 2 | -0.917 | -3.48 | inactive |
| ATXN7L2 | 3 | 0.011 | 3.04 | inactive |
| MS4A5 | 1 | -0.351 | 0.497 | inactive |
| MS4A5 | 2 | -0.0501 | 2.62 | inactive |
| MS4A5 | 3 | -0.325 | 0.68 | inactive |
| HDGF | 1 | 0.617 | 7.31 | inactive |
| HDGF | 2 | 2.03 | 17.2 | inactive |
| HDGF | 3 | 0.968 | 9.78 | inactive |
| SMAD6 | 1 | 0.0256 | 3.15 | inactive |
| SMAD6 | 2 | -0.103 | 2.24 | inactive |
| SMAD6 | 3 | 1 | 10 | inactive |
| MED31 | 1 | -0.988 | -3.99 | inactive |
| MED31 | 2 | -0.266 | 1.1 | inactive |
| MED31 | 3 | 1.72 | 15 | inactive |
| RYR2 | 1 | 0.0348 | 3.21 | inactive |
| RYR2 | 2 | -0.464 | -0.296 | inactive |
| RYR2 | 3 | -0.688 | -1.87 | inactive |
| SLC24A1 | 1 | 1.17 | 11.2 | inactive |
| SLC24A1 | 2 | -1.06 | -4.46 | inactive |
| SLC24A1 | 3 | 0.757 | 8.29 | inactive |
| TGFBR1 | 1 | 0.612 | 7.28 | inactive |
| TGFBR1 | 2 | 0.529 | 6.69 | inactive |
| TGFBR1 | 3 | 0.483 | 6.36 | inactive |
| PDLIM7 | 1 | 1.48 | 13.4 | inactive |
| PDLIM7 | 2 | -0.877 | -3.2 | inactive |
| PDLIM7 | 3 | -0.387 | 0.246 | inactive |
| CBS | 1 | 4.31 | 33.3 | inactive |
| CBS | 2 | -0.887 | -3.28 | inactive |
| CBS | 3 | -0.149 | 1.92 | inactive |
| OTX2 | 1 | -1.09 | -4.69 | inactive |
| OTX2 | 2 | 0.0152 | 3.07 | inactive |
| OTX2 | 3 | -0.484 | -0.435 | inactive |
| SLC25A12 | 1 | 3.89 | 30.4 | inactive |
| SLC25A12 | 2 | -0.201 | 1.55 | inactive |
| SLC25A12 | 3 | -1.47 | -7.4 | inactive |
| ZNF433 | 1 | -0.322 | 0.702 | inactive |
| ZNF433 | 2 | 0.242 | 4.67 | inactive |
| ZNF433 | 3 | 0.888 | 9.21 | inactive |
| TRAF3IP3 | 1 | -1.37 | -6.7 | inactive |
| TRAF3IP3 | 2 | 2.31 | 19.2 | inactive |
| TRAF3IP3 | 3 | 0.292 | 5.02 | inactive |
| HYAL3 | 1 | -1.32 | -6.35 | inactive |
| HYAL3 | 2 | -0.612 | -1.34 | inactive |
| HYAL3 | 3 | 0.0197 | 3.11 | inactive |
| ADGRF1 | 1 | 0.0717 | 3.47 | inactive |
| ADGRF1 | 2 | 2.23 | 18.7 | inactive |
| ADGRF1 | 3 | 0.304 | 5.1 | inactive |
| LINC02914 | 1 | 0.451 | 6.14 | inactive |
| LINC02914 | 2 | -0.376 | 0.319 | inactive |
| LINC02914 | 3 | -0.317 | 0.74 | inactive |

Not a retest: 4 of the entries above.
| Gene | reagent no. | G2 robust z-score | G2 cells, % of GMNN control | activity call |
| --- | --- | --- | --- | --- |
| UBE2T | 3 | 1.42 | 13 | inactive |
| GSTM4 | 1 | -1.21 | -5.52 | inactive |
| GSTM4 | 2 | 0.642 | 7.48 | inactive |
| GSTM4 | 3 | 0.456 | 6.17 | inactive |
